{"source": "patent US20220249687A1", "about": "“BIS(2-HALOACETAMIDO)-COMPOUNDS FOR USE AS LINKING AGENTS AND RESULTANT PRODUCTS WHICH COMPRISE ANTIBODIES, HALF-ANTIBODIES AND ANTIBODY FRAGMENTS” (THE UNIVERSITY OF BATH, priority 2019, published 2022)", "tested_on": "Trastuzumab", "test": "SDS-PAGE analysis of cross-linking of fully reduced Tmab with linker compounds", "conditions": "fully reduced Tmab (4 equiv. TCEP), 2 equiv. linker, room temperature overnight, SDS-PAGE and protein MS"}
{"compound": "[N-]=[N+]=NCCOCCOCCOCCNC(=O)c1ccc(NC(=O)CI)c(NC(=O)CI)c1", "note": "[Compound 17, N,N′-(4-((2-(2-(2-(2-azidoethoxy)ethoxy)ethoxy)ethyl)carbamoyl)-1,2-phenylene)bis(2-iodoacetamide)]", "values": [{"measurement": "regioselectivity of bridging (intra-HC vs HC-LC)", "result": "greater preference to cross-link heavy-light disulfide bonds"}]}
